Residue numbers refer to the chain shown, from its start. These are yes or no findings as the source states them, for the method shown. Binding seen in cells or lysates may run through a third protein. Some entries that bind do so weakly or less than the wild type. For part of these data: Sequences can lack the tags named with a protein. Blank lines part the entries; values can stand above or below the binder they belong to.
Assays:
[1] = target: T1, Vangl1, endogenous mouse (mouse (endogenous in IMCD3)) (UniProt Q80Z96); assay: co-IP; serial IP of endogenous proteins from IMCD3 cell extracts: two successive rounds of IP with N-VGL2 pAb, then IP of the Vangl2-Long depleted lysate with a Vangl1-specific antibody
T1 sequence: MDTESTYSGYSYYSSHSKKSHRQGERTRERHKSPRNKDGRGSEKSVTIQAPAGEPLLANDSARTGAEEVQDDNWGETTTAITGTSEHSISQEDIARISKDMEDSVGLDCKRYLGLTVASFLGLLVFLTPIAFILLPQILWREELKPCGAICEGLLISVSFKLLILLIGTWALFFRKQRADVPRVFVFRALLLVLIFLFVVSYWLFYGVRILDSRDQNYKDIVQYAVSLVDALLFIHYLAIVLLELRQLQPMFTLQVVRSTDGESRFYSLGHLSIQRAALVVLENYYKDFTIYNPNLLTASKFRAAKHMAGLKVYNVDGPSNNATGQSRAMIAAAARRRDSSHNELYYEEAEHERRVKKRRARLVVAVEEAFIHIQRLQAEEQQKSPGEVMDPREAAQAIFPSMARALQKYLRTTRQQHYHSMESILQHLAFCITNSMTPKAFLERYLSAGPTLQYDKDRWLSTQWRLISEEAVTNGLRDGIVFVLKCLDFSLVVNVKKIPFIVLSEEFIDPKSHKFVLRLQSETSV

[2] = target: T2, VANGL2 expressed from pVANGL2 (human) (UniProt Q9ULK5); assay: co-IP; HEK 293T cells transfected with GFP-VANGL1 and pVANGL2 or pVANGL2-Long; IP with mAb 36E3 or N-VGL2 pAb; blots with a GFP-specific antibody and mAb 36E3
T2 sequence: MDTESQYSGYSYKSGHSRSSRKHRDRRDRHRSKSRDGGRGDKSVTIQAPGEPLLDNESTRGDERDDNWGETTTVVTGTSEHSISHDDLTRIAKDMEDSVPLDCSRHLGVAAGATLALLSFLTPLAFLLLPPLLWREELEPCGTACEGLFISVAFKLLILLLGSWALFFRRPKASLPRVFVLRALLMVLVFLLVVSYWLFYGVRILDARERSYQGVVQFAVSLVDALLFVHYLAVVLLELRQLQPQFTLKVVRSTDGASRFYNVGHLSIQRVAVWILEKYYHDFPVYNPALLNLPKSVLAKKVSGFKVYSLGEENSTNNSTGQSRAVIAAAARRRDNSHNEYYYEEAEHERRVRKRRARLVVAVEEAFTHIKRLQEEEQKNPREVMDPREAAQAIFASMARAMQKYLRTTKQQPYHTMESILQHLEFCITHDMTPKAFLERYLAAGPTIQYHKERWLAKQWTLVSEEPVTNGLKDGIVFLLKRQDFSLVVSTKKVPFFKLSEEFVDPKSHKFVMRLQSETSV

[3] = target: T3, VANGL2 (canonical 62 kD isoform, 521 aa), endogenous human (human (endogenous in SKBR7 and HEK 293T)) (UniProt Q9ULK5); assay: co-IP; endogenous proteins; SKBR7 or IMCD3 cell lysates (50 mM Hepes-NaOH pH 8, 150 mM NaCl, 10% glycerol, 2 mM EDTA, 0.5% NP-40) incubated overnight at 4 °C with N-VGL2 pAb (VANGL2-Long specific) or mAb 36E3, protein A or G beads; blots with mAb 36E3 and mAb 19D5; 62 kD and 70 kD bands quantified for the ratio
T3 sequence: T2 sequence

- binding [1]: binds
B1: Vangl2 (canonical 62 kD isoform), endogenous mouse (protein, UniProt Q91ZD4 1-521)
chain: T2 sequence with G38S, T114I, V194I

- binding [2]: binds
B2: GFP-VANGL1 (protein, UniProt Q8TAA9 1-524)
chain: MDTESTYSGYSYYSSHSKKSHRQGERTRERHKSPRNKDGRGSEKSVTIQPPTGEPLLGNDSTRTEEVQDDNWGETTTAITGTSEHSISQEDIARISKDMEDSVGLDCKRYLGLTVASFLGLLVFLTPIAFILLPPILWRDELEPCGTICEGLFISMAFKLLILLIGTWALFFRKRRADMPRVFVFRALLLVLIFLFVVSYWLFYGVRILDSRDRNYQGIVQYAVSLVDALLFIHYLAIVLLELRQLQPMFTLQVVRSTDGESRFYSLGHLSIQRAALVVLENYYKDFTIYNPNLLTASKFRAAKHMAGLKVYNVDGPSNNATGQSRAMIAAAARRRDSSHNELYYEEAEHERRVKKRKARLVVAVEEAFIHIQRLQAEEQQKAPGEVMDPREAAQAIFPSMARALQKYLRITRQQNYHSMESILQHLAFCITNGMTPKAFLERYLSAGPTLQYDKDRWLSTQWRLVSDEAVTNGLRDGIVFVLKCLDFSLVVNVKKIPFIILSEEFIDPKSHKFVLRLQSETSV

- binding [3]: binds
B3: VANGL1, endogenous human (protein, UniProt Q8TAA9 1-524)
chain: B2 chain

Source: article PMC11065751
